PMC5063588
No constants are given. Whether binding was seen depends on the method and setting. In cells and extracts the contact can be indirect.

By UniProt entry, the sequences of proteins in these tests, tags left out. Residues count along the entry.
UniProt Q9Z1T2, residues 27-963: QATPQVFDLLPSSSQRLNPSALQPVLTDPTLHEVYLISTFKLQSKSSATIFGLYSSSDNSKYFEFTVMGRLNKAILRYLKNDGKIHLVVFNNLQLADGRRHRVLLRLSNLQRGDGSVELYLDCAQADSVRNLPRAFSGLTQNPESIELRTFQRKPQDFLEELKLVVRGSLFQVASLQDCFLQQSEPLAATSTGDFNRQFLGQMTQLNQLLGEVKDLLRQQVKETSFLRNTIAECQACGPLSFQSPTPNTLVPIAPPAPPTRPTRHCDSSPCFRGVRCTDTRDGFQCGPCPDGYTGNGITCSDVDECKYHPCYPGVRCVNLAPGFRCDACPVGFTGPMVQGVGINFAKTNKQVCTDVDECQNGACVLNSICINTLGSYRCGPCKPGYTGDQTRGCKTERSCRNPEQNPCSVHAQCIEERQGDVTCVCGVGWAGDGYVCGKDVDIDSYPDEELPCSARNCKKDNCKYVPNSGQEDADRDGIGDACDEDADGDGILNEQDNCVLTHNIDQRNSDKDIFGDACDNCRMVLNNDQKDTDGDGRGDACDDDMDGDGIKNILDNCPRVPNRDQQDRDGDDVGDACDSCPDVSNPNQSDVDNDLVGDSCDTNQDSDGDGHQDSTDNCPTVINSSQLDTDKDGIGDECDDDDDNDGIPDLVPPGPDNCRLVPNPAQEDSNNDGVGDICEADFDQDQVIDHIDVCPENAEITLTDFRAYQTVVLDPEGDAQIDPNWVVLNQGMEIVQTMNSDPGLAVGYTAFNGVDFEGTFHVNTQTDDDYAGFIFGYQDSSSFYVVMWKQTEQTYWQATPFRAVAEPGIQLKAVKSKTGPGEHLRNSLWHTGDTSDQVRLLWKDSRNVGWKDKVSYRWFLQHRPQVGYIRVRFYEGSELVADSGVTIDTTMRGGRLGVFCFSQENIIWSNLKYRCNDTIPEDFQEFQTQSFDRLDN

Molecular target: Flag-tagged full-length Thbs4 (thrombospondin-4) (mouse) (UniProt Q9Z1T2)
Test: co-IP; lysates of rat neonatal cardiomyocytes harvested two days after transduction with adenovirus for Thbs4 with a C-terminal Flag tag (Adβgal as control); precipitated with anti-Flag magnetic beads; immunoblotted for Flag, β1D-integrin, α7-integrin and β-dystroglycan

binding: no binding
B1: α7-integrin (receptor, UniProt Q63258 34-1135)
chain: FNLDVMGAIRKEGEPGSLFGFSVALHRQLQPRPQSWLLVGAPQALALPGQQANRTGGLFACPLSLEETDCYRVDIDRGANVQKESKENQWLGVSVRSQGAGGKVVTCAHRYESRQRVDQVLETRDVIGRCFVLSQDLAIRDELDGGEWKFCEGRPQGHEQFGFCQQGTAATFSPDSHYLIFGAPGTYNWKGLLFVTNIDSSDPDQLVYKTLDPADRLTGPAGDLTLNSYLGFSIDSGKGLMRSEELSFVAGAPRANHKGAVVILRKDSASRLIPEVVLSGERLTSGFGYSLAVTDLNSDGWADLIVGAPYFFERQEELGGAVYVYMNQGGHWADISPLRLCGSPDSMFGISLAVLGDLNQDGFPDIAVGAPFDGDGKVFIYHGSSLGVVTKPSQVLEGEAVGIKSFGYSLSGGLDVDGNHYPDLLVGSLADTAALFRARPVLHVSQEIFIDPRAIDLEQPNCADGRLVCVHVKVCFSYVAVPSSYSPIVVLDYVLDGDTDRRLRGQAPRVTFPGRGPDDLKHQSSGTVSLKHQHDRVCGDTVFQLQENVKDKLRAIVVTLSYGLQTPRLRRQAPDQGLPLVAPILNAHQPSTQRTEIHFLKQGCGDDKICQSNLQLAQAQFCSRISDTEFQALPMDLDGTALFALSGQPFIGLELTVTNLPSDPARPQADGDDAHEAQLLATLPASLRYSGVRTLDSVEKPLCLSNENASHVECELGNPMKRGTQVTFYLILSTSGITIETTELKVELLLATISEQDLHPVSVRAHVFIELPLSISGVATPQQLFFSGKVKGESAMRSERDVGSKVKYEVTVSNQGQSLNTLGSAFLNIMWPHEIANGKWLLYPMRVELEGGQGPEKKGICSPRPNILHLDVDSRDRRRRELGQPEPQEPPEKVEPSTSWWPVSSAEKRNVTLDCAQGTAKCVVFSCPLYSFDRAAVLHVWGRLWNSTFLEEYMSVKSLEVIVRANITVKSSIKNLLLRDASTVIPVMVYLDPVAVVAEGVPWWVILLAVLAGLLVLALLVLLLWKLGFFKRAKHPEATVPQYHAVKILREDRQQFKEEKTGTIQRSNWGNSQWEGSDAHPILAADWHPELGPDGHPVSVTA
